# Screening data

From PubChem BioAssay record AID1159506 (NCATS, 2015).

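Luminescence from an EWS-FLI1 target-promoter (NR0B1) reporter, set against a CMV-promoter reporter, two days after silencing single genes in TC32 Ewing sarcoma cells. Each siRNA was applied at 20 nM. A z-score of the log NR0B1-over-CMV signal, less the median of siRNAs with the same seed; more negative means a stronger specific loss of the NR0B1 reporter.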

This is part of the screen; most of the strongest results are not listed here. Sequences are the guide (antisense) strand, without overhang.

strand	target gene	seed-corrected z-score
UCAGAUCGAAGAUCUCGCG	FAM96B	-0.0418
AUGGUCACAAUAAUAAGCC	PREB	-0.2621
UCUCUCGAAACUUCACUCC	CCDC113	0.4369
UUCUGCGUAAGGUCAAUUG	TLL1	-0.6988
AUUCUUUGAGUUGCCCUGC	NR1D1	0.02864
AAUAUUUGAAGUUAAUCAC	LOC644838	0.4696
AAAGUUCCCAUCGAAUUCC	CACHD1	1.352
AGCUGUACAAAUUAUGCUU	NMNAT1	0.188
UUCAUUAUAGAGCCGUUUG	CCNI	-1.272
GAUUUAUUGAGGCAGCAGC	JOSD2	-0.2239
UCCGAGCUCAUGAACUCCG	CCDC71L	-0.1465
UCUGGUGAACGGUCUUUCC	PDPN	0.5874
AUAAUCUUAGUUCCUGACC	FAM83D	-0.4694
AACUUCUGAAAGACCCUUG	FKBP9P1	0.04096
UAAAUCAACCAGACCGUGG	KDELR1	0.2379
UAUCGUAUCAUUGAGUUCC	SACM1L	0.841
UUAUAUACCAGUUACCUGU	FBXL22	-0.8566
AAACUUUCCCUCAACUUCC	MRM1	-0.4267
UUCUUGUCUGGAUCAUAUG	ZNF425	-0.0582
UUGUUAUCAAUGAUGUACU	CTSS	0.6643
UGCUUCAAAGGUGUCCUGG	CCM2L	-0.1518
UAUGACAGUACAGUUGGGC	SMYD1	-1.078
UGGGUUUUCAUAACUACUG	FLJ22763	0.7083
UCAGUAUGGGCAAACAUCC	HCRTR2	-0.2899
UUUCUGCUGAACUGAGAUG	CRACR2B	-1.808
UAUCUCAGAGUUGUGCUGG	CYP2E1	0.1315
AAUGGUGUCCCUUCUAUCU	NDUFB3	1.316
ACAGAUUGCAUUCCCAUGG	PTTG2	0.5784
UGUCUUAAUCACGUUGUGC	PSMD3	-0.9215
AGAUGUUUUGGUCCGUUUG	RNF2	0.01831
GACUGAAACUGGACCCUUG	ZNF655	-0.5163
AUGUAAUCCAGCUUCAUCU	RPS9	0.6177
AGAAACAUUAAGAUCCUGG	CLDN22	-0.5203
UCCGAAAUCAUAGUCCUCC	MAK	-0.3352
UUCGGACCCACUGUGACCU	DGAT2	0.5046
UUCCGAUAAACAUAACAUC	SEMA3A	0.08863
UGUGGGAUGAUCACAGACA	LRRC14	-0.1264
UGUAGAAUCGCAGCAUCUC	ACBD4	-0.05424
UGUCGUACCGGAACUGCUG	MAEA	-0.4547
UAUAACACCAACGAAUUUC	RFTN1	0.4239
UUGGAGCUUAUUAAAGGCA	IL10	-0.2418
UCUGUGAAUGUUGACUCCG	C10orf90	0.349
UGUUGCUGAAGUACUCCUC	DAPK3	0.1933

3 of the entries, repeated:

| strand | target gene | seed-corrected z-score |
|---|---|---|
| `AGCUGUACAAAUUAUGCUU` | NMNAT1 | 0.188 |
| `AAUGGUGUCCCUUCUAUCU` | NDUFB3 | 1.316 |
| `UAUCUCAGAGUUGUGCUGG` | CYP2E1 | 0.1315 |